These are yes or no findings as the source states them, for the method shown. Binding seen in cells or lysates may run through a third protein. Some binding calls cover weakened binding; strength is not graded here. Sequences can lack the tags named with a protein. Values belong to the binder of their own block, whether it stands above or below them.
Tests used:
[1] = target: HA-ERF1 (Arabidopsis thaliana) (UniProt Q8LDC8); test: co-IP
[2] = target: nYFP-ERF1 (the N-terminal part of YFP fused with ERF1) (Arabidopsis thaliana) (UniProt Q8LDC8); test: split reporter

The chains behind the UniProt entries cited, without tags or fusion partners.
UniProt Q8LDC8: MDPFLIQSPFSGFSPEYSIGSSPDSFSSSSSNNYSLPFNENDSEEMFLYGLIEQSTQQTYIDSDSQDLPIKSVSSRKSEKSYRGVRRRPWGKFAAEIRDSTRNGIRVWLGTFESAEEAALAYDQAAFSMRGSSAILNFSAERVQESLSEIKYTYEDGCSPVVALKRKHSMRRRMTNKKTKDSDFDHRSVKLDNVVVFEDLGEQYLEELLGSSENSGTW

binding [1]: binds
B1: Flag-ABI3 (protein, UniProt Q01593 1-720)
chain: MKSLHVAANAGDLAEDCGILGGDADDTVLMDGIDEVGREIWLDDHGGDNNHVHGHQDDDLIVHHDPSIFYGDLPTLPDFPCMSSSSSSSTSPAPVNAIVSSASSSSAASSSTSSAASWAILRSDGEDPTPNQNQYASGNCDDSSGALQSTASMEIPLDSSQGFGCGEGGGDCIDMMETFGYMDLLDSNEFFDTSAIFSQDDDTQNPNLMDQTLERQEDQVVVPMMENNSGGDMQMMNSSLEQDDDLAAVFLEWLKNNKETVSAEDLRKVKIKKATIESAARRLGGGKEAMKQLLKLILEWVQTNHLQRRRTTTTTTNLSYQQSFQQDPFQNPNPNNNNLIPPSDQTCFSPSTWVPPPPQQQAFVSDPGFGYMPAPNYPPQPEFLPLLESPPSWPPPPQSGPMPHQQFPMPPTSQYNQFGDPTGFNGYNMNPYQYPYVPAGQMRDQRLLRLCSSATKEARKKRMARQRRFLSHHHRHNNNNNNNNNNQQNQTQIGETCAAVAPQLNPVATTATGGTWMYWPNVPAVPPQLPPVMETQLPTMDRAGSASAMPRQQVVPDRRQGWKPEKNLRFLLQKVLKQSDVGNLGRIVLPKKEAETHLPELEARDGISLAMEDIGTSRVWNMRYRFWPNNKSRMYLLENTGDFVKTNGLQEGDFIVIYSDVKCGKYLIRGVKVRQPSGQKPEAPPSSAATKRQNKSQRNINNNSPSANVVVASPTSQTVK

binding [2]: binds
B2: cYFP-ABI3 (the C-terminal part of YFP fused with ABI3) (protein, UniProt Q01593 1-720)
chain: B1 chain

From article doi:10.1101/2023.03.08.531793
